Results on one substance are retold here after PMC4650436.

Sequences of proteins named here, by UniProt entry; tags and fusion partners are left off.
UniProt P27008: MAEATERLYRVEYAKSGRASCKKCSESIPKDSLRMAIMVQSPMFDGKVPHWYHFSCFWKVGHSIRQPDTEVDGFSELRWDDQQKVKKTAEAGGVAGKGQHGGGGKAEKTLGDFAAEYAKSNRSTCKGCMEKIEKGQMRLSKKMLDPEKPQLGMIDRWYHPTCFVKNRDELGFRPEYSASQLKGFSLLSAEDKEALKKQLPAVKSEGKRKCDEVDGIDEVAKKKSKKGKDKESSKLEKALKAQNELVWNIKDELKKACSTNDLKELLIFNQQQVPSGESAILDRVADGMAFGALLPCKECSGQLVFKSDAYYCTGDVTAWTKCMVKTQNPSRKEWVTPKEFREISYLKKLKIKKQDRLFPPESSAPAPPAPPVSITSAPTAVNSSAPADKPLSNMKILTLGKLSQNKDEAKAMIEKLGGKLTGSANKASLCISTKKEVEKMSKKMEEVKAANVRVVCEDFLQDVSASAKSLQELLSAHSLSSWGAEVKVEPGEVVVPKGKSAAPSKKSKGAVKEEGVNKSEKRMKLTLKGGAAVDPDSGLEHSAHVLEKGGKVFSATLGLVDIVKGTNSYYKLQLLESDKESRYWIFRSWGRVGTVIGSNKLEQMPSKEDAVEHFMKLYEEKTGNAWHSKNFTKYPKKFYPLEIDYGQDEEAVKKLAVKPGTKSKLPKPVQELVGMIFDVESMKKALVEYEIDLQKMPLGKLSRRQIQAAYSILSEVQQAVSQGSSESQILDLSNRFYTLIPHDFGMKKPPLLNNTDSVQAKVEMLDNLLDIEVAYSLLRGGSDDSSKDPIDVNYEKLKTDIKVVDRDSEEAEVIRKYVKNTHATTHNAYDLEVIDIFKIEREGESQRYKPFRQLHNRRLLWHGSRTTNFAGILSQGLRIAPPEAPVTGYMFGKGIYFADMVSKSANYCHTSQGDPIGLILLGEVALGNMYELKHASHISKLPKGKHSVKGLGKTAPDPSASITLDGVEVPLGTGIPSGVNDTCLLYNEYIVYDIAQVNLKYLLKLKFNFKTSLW

No constants are given. Whether binding was seen depends on the method and setting. Binding seen in cells or lysates may run through a third protein. Some results given as binding are weak or reduced against the parent protein; the word gives no strength.

The target in this experiment is T1, annexin A6 (Anxa6), endogenous in H9c2 cardiomyocytes (rat (endogenous in H9c2)) (UniProt P48037).
T1 sequence: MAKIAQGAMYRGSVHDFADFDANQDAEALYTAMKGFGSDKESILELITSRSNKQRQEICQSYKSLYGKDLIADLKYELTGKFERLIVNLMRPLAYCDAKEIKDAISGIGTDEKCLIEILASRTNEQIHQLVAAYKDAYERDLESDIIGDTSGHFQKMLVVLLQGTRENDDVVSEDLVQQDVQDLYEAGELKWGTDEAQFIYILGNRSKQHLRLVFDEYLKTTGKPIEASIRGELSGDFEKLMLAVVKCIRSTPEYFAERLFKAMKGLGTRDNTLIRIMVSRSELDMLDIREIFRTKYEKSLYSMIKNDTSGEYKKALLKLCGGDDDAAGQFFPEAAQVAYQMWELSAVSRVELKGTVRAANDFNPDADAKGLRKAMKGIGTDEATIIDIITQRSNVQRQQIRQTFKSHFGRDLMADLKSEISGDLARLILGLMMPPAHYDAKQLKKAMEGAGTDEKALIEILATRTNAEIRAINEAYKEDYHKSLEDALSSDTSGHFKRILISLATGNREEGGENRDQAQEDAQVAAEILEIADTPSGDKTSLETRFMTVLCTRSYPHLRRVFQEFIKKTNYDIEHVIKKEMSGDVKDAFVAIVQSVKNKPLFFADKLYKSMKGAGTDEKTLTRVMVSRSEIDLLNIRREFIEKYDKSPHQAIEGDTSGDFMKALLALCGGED
As to the kind of experiment: co-IP; whole-cell lysates of wild-type H9c2 cardiomyocytes, without or with PE (also pretreated with ionomycin); antibodies coupled onto amine-reactive resin, 1 mg lysate, overnight at 4 °C; immunoblot of the immunoprecipitate.

“poly-(ADP-ribose) polymerase 1 (Parp1), full length, endogenous in H9c2 cardiomyocytes (from UniProt P27008 1-1014)”: the binding result was “binds”.
